Laboratory results taken from the supplement of paper PMC11546906.
Where a name gives a salt, the structure may show the parent alone. The list shows a part of the results. This data set is noisy: repeats of one test often differ as much as different tests do.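 Screen of FDA-approved drugs, each combined with colistin at one-eighth of its MIC, against a multidrug-resistant mcr-1-positive clinical E. coli isolate; growth read as OD600 after 24 h. Bacteria without drug were the growth control and plain broth the blank. A combination counted as active when OD600 fell below 0.2.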

Test system: Escherichia coli 42 (mcr-1-positive clinical isolate)
Experiment: OD600 after 24 h growth with compound plus colistin (absorbance units (OD600)); higher = more bacterial growth (less inhibition)
Settings: first compound 25 µM; colistin concentration 0.5 ug/mL; incubation time 24 h; 37 °C

Structure (SMILES)	OD600
CO/N=C(\C(=O)N[C@@H]1C(=O)N2C(C(=O)O)=C(CSc3nnnn3C)CS[C@H]12)c1csc(N)n1 [Cefmenoxime hydrochloride] + CCC(C)CCCC(=O)N[C@@H](CCN)C(=O)N[C@H](C(=O)N[C@@H](CCN)C(=O)N[C@H]1CCNC(=O)[C@H]([C@@H](C)O)NC(=O)[C@H](CCN)NC(=O)[C@H](CCN)NC(=O)[C@H](CC(C)C)NC(=O)[C@@H](CC(C)C)NC(=O)[C@H](CCN)NC1=O)[C@@H](C)O [colistin]	active: 0.055
CCc1cc2c(cc1CC)CC(NC[C@H](O)c1ccc(O)c3[nH]c(=O)ccc13)C2 [Indacaterol maleate] + CCC(C)CCCC(=O)N[C@@H](CCN)C(=O)N[C@H](C(=O)N[C@@H](CCN)C(=O)N[C@H]1CCNC(=O)[C@H]([C@@H](C)O)NC(=O)[C@H](CCN)NC(=O)[C@H](CCN)NC(=O)[C@H](CC(C)C)NC(=O)[C@@H](CC(C)C)NC(=O)[C@H](CCN)NC1=O)[C@@H](C)O [colistin]	inactive: 1.03
OCCN1CCN(CCCN2c3ccccc3Sc3ccc(Cl)cc32)CC1 [Perphenazine] + CCC(C)CCCC(=O)N[C@@H](CCN)C(=O)N[C@H](C(=O)N[C@@H](CCN)C(=O)N[C@H]1CCNC(=O)[C@H]([C@@H](C)O)NC(=O)[C@H](CCN)NC(=O)[C@H](CCN)NC(=O)[C@H](CC(C)C)NC(=O)[C@@H](CC(C)C)NC(=O)[C@H](CCN)NC1=O)[C@@H](C)O [colistin]	inactive: 0.867
CCCCOc1ccc(C(=O)CCN2CCCCC2)cc1 [Dyclonine hydrochloride] + CCC(C)CCCC(=O)N[C@@H](CCN)C(=O)N[C@H](C(=O)N[C@@H](CCN)C(=O)N[C@H]1CCNC(=O)[C@H]([C@@H](C)O)NC(=O)[C@H](CCN)NC(=O)[C@H](CCN)NC(=O)[C@H](CC(C)C)NC(=O)[C@@H](CC(C)C)NC(=O)[C@H](CCN)NC1=O)[C@@H](C)O [colistin]	inactive: 1.08
CC(C(=O)O)c1cccc(C(=O)c2ccccc2)c1 (centres undefined) [Ketoprofen] + CCC(C)CCCC(=O)N[C@@H](CCN)C(=O)N[C@H](C(=O)N[C@@H](CCN)C(=O)N[C@H]1CCNC(=O)[C@H]([C@@H](C)O)NC(=O)[C@H](CCN)NC(=O)[C@H](CCN)NC(=O)[C@H](CC(C)C)NC(=O)[C@@H](CC(C)C)NC(=O)[C@H](CCN)NC1=O)[C@@H](C)O [colistin]	inactive: 1.09
CCC(CC)[C@H](NC(C)=O)[C@@H]1[C@H](O)[C@@H](C(=O)O)C[C@H]1NC(=N)N [Peramivir Trihydrate] + CCC(C)CCCC(=O)N[C@@H](CCN)C(=O)N[C@H](C(=O)N[C@@H](CCN)C(=O)N[C@H]1CCNC(=O)[C@H]([C@@H](C)O)NC(=O)[C@H](CCN)NC(=O)[C@H](CCN)NC(=O)[C@H](CC(C)C)NC(=O)[C@@H](CC(C)C)NC(=O)[C@H](CCN)NC1=O)[C@@H](C)O [colistin]	inactive: 0.796
NC(=O)c1cccnc1 [Nicotinamide] + CCC(C)CCCC(=O)N[C@@H](CCN)C(=O)N[C@H](C(=O)N[C@@H](CCN)C(=O)N[C@H]1CCNC(=O)[C@H]([C@@H](C)O)NC(=O)[C@H](CCN)NC(=O)[C@H](CCN)NC(=O)[C@H](CC(C)C)NC(=O)[C@@H](CC(C)C)NC(=O)[C@H](CCN)NC1=O)[C@@H](C)O [colistin]	inactive: 0.918
CC[C@H](C)[C@@H]1NC(=O)[C@H](Cc2ccc(O)cc2)NC(=O)[C@@H](N)CSSC[C@@H](C(=O)N2CCC[C@H]2C(=O)N[C@@H](CC(C)C)C(=O)NCC(N)=O)NC(=O)[C@H](CC(N)=O)NC(=O)[C@H](CCC(N)=O)NC1=O [Oxytocin] + CCC(C)CCCC(=O)N[C@@H](CCN)C(=O)N[C@H](C(=O)N[C@@H](CCN)C(=O)N[C@H]1CCNC(=O)[C@H]([C@@H](C)O)NC(=O)[C@H](CCN)NC(=O)[C@H](CCN)NC(=O)[C@H](CC(C)C)NC(=O)[C@@H](CC(C)C)NC(=O)[C@H](CCN)NC1=O)[C@@H](C)O [colistin]	inactive: 1.07
O=C1CN(/N=C/c2ccc(-c3ccc([N+](=O)[O-])cc3)o2)C(=O)N1 [Dantrolene] + CCC(C)CCCC(=O)N[C@@H](CCN)C(=O)N[C@H](C(=O)N[C@@H](CCN)C(=O)N[C@H]1CCNC(=O)[C@H]([C@@H](C)O)NC(=O)[C@H](CCN)NC(=O)[C@H](CCN)NC(=O)[C@H](CC(C)C)NC(=O)[C@@H](CC(C)C)NC(=O)[C@H](CCN)NC1=O)[C@@H](C)O [colistin]	inactive: 1.07
CCCC(CCC)C(=O)O [Valproic acid sodium salt] + CCC(C)CCCC(=O)N[C@@H](CCN)C(=O)N[C@H](C(=O)N[C@@H](CCN)C(=O)N[C@H]1CCNC(=O)[C@H]([C@@H](C)O)NC(=O)[C@H](CCN)NC(=O)[C@H](CCN)NC(=O)[C@H](CC(C)C)NC(=O)[C@@H](CC(C)C)NC(=O)[C@H](CCN)NC1=O)[C@@H](C)O [colistin]	inactive: 0.959
CCCCC[C@H](O)/C=C/[C@H]1[C@H](O)CC(=O)[C@@H]1CCCCCCC(=O)O [Prostaglandin E1] + CCC(C)CCCC(=O)N[C@@H](CCN)C(=O)N[C@H](C(=O)N[C@@H](CCN)C(=O)N[C@H]1CCNC(=O)[C@H]([C@@H](C)O)NC(=O)[C@H](CCN)NC(=O)[C@H](CCN)NC(=O)[C@H](CC(C)C)NC(=O)[C@@H](CC(C)C)NC(=O)[C@H](CCN)NC1=O)[C@@H](C)O [colistin]	inactive: 0.853
CN(C)c1ccc(O)c2c1C[C@H]1C[C@H]3[C@H](N(C)C)C(=O)C(C(N)=O)=C(O)[C@@]3(O)C(=O)C1=C2O [Minocycline hydrochloride] + CCC(C)CCCC(=O)N[C@@H](CCN)C(=O)N[C@H](C(=O)N[C@@H](CCN)C(=O)N[C@H]1CCNC(=O)[C@H]([C@@H](C)O)NC(=O)[C@H](CCN)NC(=O)[C@H](CCN)NC(=O)[C@H](CC(C)C)NC(=O)[C@@H](CC(C)C)NC(=O)[C@H](CCN)NC1=O)[C@@H](C)O [colistin]	active: 0.04
O=C1CC2(CCCC2)CC(=O)N1CCCCN1CCN(c2ncccn2)CC1 [Buspirone hydrochloride] + CCC(C)CCCC(=O)N[C@@H](CCN)C(=O)N[C@H](C(=O)N[C@@H](CCN)C(=O)N[C@H]1CCNC(=O)[C@H]([C@@H](C)O)NC(=O)[C@H](CCN)NC(=O)[C@H](CCN)NC(=O)[C@H](CC(C)C)NC(=O)[C@@H](CC(C)C)NC(=O)[C@H](CCN)NC1=O)[C@@H](C)O [colistin]	inactive: 1.17
CC1(C)C[C@@H]1C(=O)N/C(=C\CCCCSC[C@H](N)C(=O)O)C(=O)O [Cilastatin] + CCC(C)CCCC(=O)N[C@@H](CCN)C(=O)N[C@H](C(=O)N[C@@H](CCN)C(=O)N[C@H]1CCNC(=O)[C@H]([C@@H](C)O)NC(=O)[C@H](CCN)NC(=O)[C@H](CCN)NC(=O)[C@H](CC(C)C)NC(=O)[C@@H](CC(C)C)NC(=O)[C@H](CCN)NC1=O)[C@@H](C)O [colistin]	inactive: 0.782
NC(=O)c1cnccn1 [Pyrazinamide] + CCC(C)CCCC(=O)N[C@@H](CCN)C(=O)N[C@H](C(=O)N[C@@H](CCN)C(=O)N[C@H]1CCNC(=O)[C@H]([C@@H](C)O)NC(=O)[C@H](CCN)NC(=O)[C@H](CCN)NC(=O)[C@H](CC(C)C)NC(=O)[C@@H](CC(C)C)NC(=O)[C@H](CCN)NC1=O)[C@@H](C)O [colistin]	inactive: 0.908
CC(C)[C@H]1CC[C@H](C(=O)N[C@H](Cc2ccccc2)C(=O)O)CC1 [Nateglinide] + CCC(C)CCCC(=O)N[C@@H](CCN)C(=O)N[C@H](C(=O)N[C@@H](CCN)C(=O)N[C@H]1CCNC(=O)[C@H]([C@@H](C)O)NC(=O)[C@H](CCN)NC(=O)[C@H](CCN)NC(=O)[C@H](CC(C)C)NC(=O)[C@@H](CC(C)C)NC(=O)[C@H](CCN)NC1=O)[C@@H](C)O [colistin]	inactive: 1.14
CCCc1nc2c(C)cc(-c3nc4ccccc4n3C)cc2n1Cc1ccc(-c2ccccc2C(=O)O)cc1 [Telmisartan] + CCC(C)CCCC(=O)N[C@@H](CCN)C(=O)N[C@H](C(=O)N[C@@H](CCN)C(=O)N[C@H]1CCNC(=O)[C@H]([C@@H](C)O)NC(=O)[C@H](CCN)NC(=O)[C@H](CCN)NC(=O)[C@H](CC(C)C)NC(=O)[C@@H](CC(C)C)NC(=O)[C@H](CCN)NC1=O)[C@@H](C)O [colistin]	inactive: 0.788
COC(=O)C1=C(C)NC(C)=C(C(=O)OCCN(C)Cc2ccccc2)C1c1cccc([N+](=O)[O-])c1 (centres undefined) [Nicardipine hydrochloride] + CCC(C)CCCC(=O)N[C@@H](CCN)C(=O)N[C@H](C(=O)N[C@@H](CCN)C(=O)N[C@H]1CCNC(=O)[C@H]([C@@H](C)O)NC(=O)[C@H](CCN)NC(=O)[C@H](CCN)NC(=O)[C@H](CC(C)C)NC(=O)[C@@H](CC(C)C)NC(=O)[C@H](CCN)NC1=O)[C@@H](C)O [colistin]	inactive: 0.913
CCc1cccc2c3c([nH]c12)C(CC)(CC(=O)O)OCC3 (centres undefined) [Etodolac] + CCC(C)CCCC(=O)N[C@@H](CCN)C(=O)N[C@H](C(=O)N[C@@H](CCN)C(=O)N[C@H]1CCNC(=O)[C@H]([C@@H](C)O)NC(=O)[C@H](CCN)NC(=O)[C@H](CCN)NC(=O)[C@H](CC(C)C)NC(=O)[C@@H](CC(C)C)NC(=O)[C@H](CCN)NC1=O)[C@@H](C)O [colistin]	inactive: 1

Pulled one by one from the list above (2):
Structure (SMILES)	OD600
NC(=O)c1cnccn1 [Pyrazinamide] + CCC(C)CCCC(=O)N[C@@H](CCN)C(=O)N[C@H](C(=O)N[C@@H](CCN)C(=O)N[C@H]1CCNC(=O)[C@H]([C@@H](C)O)NC(=O)[C@H](CCN)NC(=O)[C@H](CCN)NC(=O)[C@H](CC(C)C)NC(=O)[C@@H](CC(C)C)NC(=O)[C@H](CCN)NC1=O)[C@@H](C)O [colistin]	inactive: 0.908
COC(=O)C1=C(C)NC(C)=C(C(=O)OCCN(C)Cc2ccccc2)C1c1cccc([N+](=O)[O-])c1 (centres undefined) [Nicardipine hydrochloride] + CCC(C)CCCC(=O)N[C@@H](CCN)C(=O)N[C@H](C(=O)N[C@@H](CCN)C(=O)N[C@H]1CCNC(=O)[C@H]([C@@H](C)O)NC(=O)[C@H](CCN)NC(=O)[C@H](CCN)NC(=O)[C@H](CC(C)C)NC(=O)[C@@H](CC(C)C)NC(=O)[C@H](CCN)NC1=O)[C@@H](C)O [colistin]	inactive: 0.913
